Structures can show the parent of a compound that is named as a salt. Some of the results follow. The calls rarely recur for the same compound in another form.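 In K562 cells expressing nanoluciferase-fused kinases, luminescence was recorded at 4 h intervals between 2 and 18 h, normalized as percent of control with DMSO at 100% and a positive control at 0%. A significant (2 sigma) signal drop marks a time point as decreased. The authors' rule for a hit is not shown and takes in more than the number of time points.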
Columns and labels:
Assay in all cases: kinase-Nluc reporter destabilization hit call (1 = scored as downregulated) (binary); higher = compound decreases kinase abundance
Conditions in all cases: K562; 2-18 h
MAPK1 = MAPK1 (UniProt P28482)
MAPK4 = MAPK4 (UniProt P31152)
MAPKAPK2 = MAPKAPK2 (UniProt P49137)
MKNK1 = MKNK1 (UniProt Q9BUB5)
NTRK2 = NTRK2 (UniProt Q16620)
NTRK3 = NTRK3 (UniProt Q16288)
PAK4 = PAK4 (UniProt O96013)
PBK = PBK (UniProt Q96KB5)
PDGFRB = PDGFRB (UniProt P09619)
PDK1 = PDK1 (UniProt Q15118)
PDPK1 = PDPK1 (UniProt O15530)
PIK4CA = PIK4CA (UniProt P42356)
PIK4CB = PIK4CB (UniProt Q9UBF8)
PLK1 = PLK1 (UniProt P53350)
PRKAA1 = PRKAA1 (UniProt Q13131)
PRKCA = PRKCA (UniProt P17252)
PTK2 = PTK2 (UniProt Q05397)
PTK2B = PTK2B (UniProt Q14289)
RAF1 = RAF1 (UniProt P04049)
[1] = molecular target: RAF1_S257L (clone: RAF1_mut) (UniProt P04049)

Protein sequences, listed by entry. Tags and fused reporters are not part of them. Lines headed by an entry give the natural chain unless they say otherwise; changes in a name come on top.
UniProt P28482, whole entry: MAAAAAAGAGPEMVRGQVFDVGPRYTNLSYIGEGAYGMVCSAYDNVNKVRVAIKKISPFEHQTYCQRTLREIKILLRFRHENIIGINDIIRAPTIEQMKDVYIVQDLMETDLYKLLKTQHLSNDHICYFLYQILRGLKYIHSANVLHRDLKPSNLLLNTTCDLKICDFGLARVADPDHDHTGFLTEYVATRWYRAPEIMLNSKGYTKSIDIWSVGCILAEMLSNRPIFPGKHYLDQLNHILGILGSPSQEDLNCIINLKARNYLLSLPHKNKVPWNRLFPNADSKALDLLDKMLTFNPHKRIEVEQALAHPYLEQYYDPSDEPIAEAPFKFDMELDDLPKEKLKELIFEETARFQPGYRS
UniProt P49137, whole entry, looked up: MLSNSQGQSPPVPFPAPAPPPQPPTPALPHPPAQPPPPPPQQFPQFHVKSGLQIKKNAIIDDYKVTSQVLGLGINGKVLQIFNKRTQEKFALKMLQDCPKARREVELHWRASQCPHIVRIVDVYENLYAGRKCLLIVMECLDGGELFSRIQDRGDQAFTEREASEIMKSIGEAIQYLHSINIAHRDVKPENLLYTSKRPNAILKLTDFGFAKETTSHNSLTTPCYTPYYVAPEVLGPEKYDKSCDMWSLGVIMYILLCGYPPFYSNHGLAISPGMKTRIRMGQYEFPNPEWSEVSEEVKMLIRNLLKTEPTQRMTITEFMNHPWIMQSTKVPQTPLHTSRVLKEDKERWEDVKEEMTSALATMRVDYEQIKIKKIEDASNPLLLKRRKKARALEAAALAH
UniProt Q9BUB5: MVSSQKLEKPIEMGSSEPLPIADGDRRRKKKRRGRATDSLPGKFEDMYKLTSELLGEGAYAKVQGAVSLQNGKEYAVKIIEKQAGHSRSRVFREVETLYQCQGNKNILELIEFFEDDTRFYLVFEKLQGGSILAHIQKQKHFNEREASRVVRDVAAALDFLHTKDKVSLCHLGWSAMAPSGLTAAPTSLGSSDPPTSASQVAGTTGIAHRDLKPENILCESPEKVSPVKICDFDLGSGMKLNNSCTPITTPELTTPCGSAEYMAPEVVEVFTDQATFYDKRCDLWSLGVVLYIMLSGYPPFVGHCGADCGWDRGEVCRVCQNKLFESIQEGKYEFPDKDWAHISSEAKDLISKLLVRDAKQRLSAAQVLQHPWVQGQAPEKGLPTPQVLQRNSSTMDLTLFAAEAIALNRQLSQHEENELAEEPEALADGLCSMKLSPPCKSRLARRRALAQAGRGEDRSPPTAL
UniProt Q16288, whole entry, looked up: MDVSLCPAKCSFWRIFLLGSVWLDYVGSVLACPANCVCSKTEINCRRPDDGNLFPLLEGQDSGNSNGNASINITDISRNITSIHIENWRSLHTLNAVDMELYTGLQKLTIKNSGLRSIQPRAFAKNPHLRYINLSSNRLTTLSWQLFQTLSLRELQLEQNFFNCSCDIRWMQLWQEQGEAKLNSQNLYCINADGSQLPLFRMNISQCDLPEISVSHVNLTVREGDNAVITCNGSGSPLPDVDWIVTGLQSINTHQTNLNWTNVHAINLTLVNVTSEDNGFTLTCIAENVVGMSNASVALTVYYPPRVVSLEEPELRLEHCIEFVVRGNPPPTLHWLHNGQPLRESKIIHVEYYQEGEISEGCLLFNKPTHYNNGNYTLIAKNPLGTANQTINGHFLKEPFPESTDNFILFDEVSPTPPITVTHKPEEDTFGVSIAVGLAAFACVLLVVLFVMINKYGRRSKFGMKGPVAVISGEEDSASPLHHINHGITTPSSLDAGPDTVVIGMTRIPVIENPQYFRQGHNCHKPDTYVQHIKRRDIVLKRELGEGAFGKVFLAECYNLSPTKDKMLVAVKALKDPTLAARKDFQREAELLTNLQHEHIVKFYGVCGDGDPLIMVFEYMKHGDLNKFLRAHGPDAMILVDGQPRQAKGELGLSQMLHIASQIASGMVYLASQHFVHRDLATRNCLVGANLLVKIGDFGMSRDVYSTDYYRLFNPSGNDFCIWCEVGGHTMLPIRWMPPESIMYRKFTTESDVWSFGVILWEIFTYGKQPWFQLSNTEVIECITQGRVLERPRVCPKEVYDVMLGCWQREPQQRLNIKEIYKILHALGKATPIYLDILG
UniProt O96013: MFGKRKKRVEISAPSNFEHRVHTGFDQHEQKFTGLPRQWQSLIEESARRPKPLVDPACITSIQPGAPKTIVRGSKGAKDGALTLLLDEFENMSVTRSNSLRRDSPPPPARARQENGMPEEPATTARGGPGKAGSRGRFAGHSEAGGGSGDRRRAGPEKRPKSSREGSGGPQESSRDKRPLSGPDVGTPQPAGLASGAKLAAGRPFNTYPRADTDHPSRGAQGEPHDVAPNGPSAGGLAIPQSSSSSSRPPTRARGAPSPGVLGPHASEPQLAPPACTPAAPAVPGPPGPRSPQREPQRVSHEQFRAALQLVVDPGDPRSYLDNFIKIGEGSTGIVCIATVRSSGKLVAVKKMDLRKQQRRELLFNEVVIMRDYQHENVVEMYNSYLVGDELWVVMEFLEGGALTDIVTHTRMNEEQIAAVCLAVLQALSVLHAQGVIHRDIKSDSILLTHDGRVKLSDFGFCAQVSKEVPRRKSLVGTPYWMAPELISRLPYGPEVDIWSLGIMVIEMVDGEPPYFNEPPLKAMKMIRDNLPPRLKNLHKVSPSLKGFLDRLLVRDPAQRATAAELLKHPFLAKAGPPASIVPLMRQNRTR
UniProt Q96KB5: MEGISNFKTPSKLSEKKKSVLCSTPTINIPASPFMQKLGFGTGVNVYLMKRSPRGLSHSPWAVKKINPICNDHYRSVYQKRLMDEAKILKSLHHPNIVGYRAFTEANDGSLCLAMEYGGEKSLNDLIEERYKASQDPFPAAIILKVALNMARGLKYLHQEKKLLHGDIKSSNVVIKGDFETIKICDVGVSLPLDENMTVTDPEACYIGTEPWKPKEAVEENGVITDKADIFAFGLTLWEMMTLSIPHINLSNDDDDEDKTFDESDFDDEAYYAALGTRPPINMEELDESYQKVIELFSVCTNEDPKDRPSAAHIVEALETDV
UniProt Q15118, whole entry, looked up: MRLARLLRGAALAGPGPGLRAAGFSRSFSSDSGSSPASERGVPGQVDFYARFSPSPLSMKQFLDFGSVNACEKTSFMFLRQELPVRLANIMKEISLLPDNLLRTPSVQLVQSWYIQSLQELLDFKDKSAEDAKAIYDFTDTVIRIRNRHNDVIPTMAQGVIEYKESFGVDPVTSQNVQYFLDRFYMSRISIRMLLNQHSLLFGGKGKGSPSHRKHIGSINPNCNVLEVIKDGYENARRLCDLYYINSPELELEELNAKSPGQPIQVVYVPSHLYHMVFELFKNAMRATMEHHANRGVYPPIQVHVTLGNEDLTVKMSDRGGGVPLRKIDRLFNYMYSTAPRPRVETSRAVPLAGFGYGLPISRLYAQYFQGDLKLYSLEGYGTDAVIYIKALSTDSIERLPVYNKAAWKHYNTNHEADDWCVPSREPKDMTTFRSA
UniProt P42356, whole entry, looked up: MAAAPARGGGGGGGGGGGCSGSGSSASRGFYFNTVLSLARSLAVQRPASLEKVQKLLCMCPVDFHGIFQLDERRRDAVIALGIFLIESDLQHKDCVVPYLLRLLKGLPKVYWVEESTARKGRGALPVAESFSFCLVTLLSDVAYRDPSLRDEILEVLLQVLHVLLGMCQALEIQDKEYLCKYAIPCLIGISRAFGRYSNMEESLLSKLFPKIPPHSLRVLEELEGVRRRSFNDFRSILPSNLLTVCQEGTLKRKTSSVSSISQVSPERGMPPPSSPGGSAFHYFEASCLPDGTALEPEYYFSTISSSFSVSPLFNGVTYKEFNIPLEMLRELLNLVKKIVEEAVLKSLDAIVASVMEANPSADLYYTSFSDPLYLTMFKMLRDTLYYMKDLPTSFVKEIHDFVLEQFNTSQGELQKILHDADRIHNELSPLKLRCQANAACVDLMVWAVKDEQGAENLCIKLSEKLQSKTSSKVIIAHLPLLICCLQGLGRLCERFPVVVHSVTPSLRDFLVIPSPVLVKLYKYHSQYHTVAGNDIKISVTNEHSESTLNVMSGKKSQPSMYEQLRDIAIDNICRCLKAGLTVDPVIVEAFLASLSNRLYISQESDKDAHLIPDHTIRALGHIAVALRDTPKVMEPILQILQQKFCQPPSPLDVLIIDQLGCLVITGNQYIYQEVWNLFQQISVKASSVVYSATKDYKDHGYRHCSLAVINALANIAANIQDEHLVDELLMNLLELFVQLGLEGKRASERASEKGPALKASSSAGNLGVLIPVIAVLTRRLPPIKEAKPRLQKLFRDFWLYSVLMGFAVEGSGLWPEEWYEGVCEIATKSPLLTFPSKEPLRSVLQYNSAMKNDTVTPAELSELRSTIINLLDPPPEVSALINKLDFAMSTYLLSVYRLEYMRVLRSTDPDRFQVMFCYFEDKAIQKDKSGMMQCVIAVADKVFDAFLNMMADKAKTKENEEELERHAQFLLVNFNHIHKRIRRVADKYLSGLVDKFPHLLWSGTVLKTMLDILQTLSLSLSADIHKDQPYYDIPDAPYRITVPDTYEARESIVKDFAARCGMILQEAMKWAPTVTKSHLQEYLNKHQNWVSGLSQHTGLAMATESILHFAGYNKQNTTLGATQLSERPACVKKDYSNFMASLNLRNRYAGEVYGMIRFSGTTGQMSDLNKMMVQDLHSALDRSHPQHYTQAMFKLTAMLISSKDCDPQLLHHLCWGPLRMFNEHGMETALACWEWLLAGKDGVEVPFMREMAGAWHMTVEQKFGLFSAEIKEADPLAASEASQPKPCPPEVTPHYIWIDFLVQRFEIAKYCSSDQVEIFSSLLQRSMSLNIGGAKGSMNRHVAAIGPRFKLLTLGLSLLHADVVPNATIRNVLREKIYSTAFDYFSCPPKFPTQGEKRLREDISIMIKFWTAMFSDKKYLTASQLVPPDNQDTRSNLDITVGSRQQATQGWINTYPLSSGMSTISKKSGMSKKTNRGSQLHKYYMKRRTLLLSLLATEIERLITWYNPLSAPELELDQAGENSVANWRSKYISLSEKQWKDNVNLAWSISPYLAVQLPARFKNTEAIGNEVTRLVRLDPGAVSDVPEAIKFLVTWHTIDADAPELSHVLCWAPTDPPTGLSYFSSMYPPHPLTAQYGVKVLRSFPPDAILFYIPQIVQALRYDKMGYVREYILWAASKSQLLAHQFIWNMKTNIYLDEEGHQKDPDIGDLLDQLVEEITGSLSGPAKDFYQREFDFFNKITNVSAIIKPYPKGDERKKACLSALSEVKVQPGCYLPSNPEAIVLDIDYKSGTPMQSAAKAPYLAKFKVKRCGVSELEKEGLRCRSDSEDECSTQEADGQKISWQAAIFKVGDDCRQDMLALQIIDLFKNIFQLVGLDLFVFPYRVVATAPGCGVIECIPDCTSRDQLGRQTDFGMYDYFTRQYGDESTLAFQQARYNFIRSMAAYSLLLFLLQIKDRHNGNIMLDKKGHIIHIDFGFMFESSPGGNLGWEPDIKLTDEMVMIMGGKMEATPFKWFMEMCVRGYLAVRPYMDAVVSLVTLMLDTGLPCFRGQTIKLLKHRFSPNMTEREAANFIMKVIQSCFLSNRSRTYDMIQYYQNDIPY
UniProt Q05397, whole entry, looked up: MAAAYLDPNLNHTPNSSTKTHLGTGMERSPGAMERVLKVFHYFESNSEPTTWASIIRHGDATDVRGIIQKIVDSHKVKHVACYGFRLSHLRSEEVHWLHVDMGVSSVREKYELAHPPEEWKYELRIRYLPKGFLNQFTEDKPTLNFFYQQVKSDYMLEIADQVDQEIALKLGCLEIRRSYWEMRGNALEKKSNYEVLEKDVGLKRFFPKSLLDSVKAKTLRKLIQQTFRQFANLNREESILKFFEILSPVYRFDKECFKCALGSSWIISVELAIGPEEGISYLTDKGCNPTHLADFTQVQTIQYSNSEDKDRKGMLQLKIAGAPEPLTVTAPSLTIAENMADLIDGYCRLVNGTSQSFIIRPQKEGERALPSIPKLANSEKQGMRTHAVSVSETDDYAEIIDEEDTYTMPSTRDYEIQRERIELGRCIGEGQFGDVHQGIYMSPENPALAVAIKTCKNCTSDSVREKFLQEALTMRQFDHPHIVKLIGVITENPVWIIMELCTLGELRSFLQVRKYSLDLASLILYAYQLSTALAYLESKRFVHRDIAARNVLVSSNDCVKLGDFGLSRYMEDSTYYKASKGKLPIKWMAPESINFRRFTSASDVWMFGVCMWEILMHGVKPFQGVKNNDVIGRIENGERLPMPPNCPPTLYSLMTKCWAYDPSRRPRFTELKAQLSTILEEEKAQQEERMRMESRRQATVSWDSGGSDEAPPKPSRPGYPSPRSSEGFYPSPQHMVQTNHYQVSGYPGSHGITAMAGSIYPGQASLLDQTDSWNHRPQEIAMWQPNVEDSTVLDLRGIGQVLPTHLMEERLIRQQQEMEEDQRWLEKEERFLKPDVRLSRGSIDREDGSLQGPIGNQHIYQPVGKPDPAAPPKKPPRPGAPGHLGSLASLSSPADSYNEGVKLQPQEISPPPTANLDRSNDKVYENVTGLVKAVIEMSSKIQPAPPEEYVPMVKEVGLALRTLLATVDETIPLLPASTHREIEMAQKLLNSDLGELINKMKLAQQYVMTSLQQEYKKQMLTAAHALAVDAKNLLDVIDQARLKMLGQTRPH

Measured: kinase-Nluc reporter destabilization hit call

C[C@H](NC(=O)/C(C#N)=C/c1cccc(Br)n1)c1ccccc1 (2.5 µM)
inactive: MAPK1 = 0 | MAPK4 = 0 | MAPKAPK2 = 0 | MKNK1 = 0 | NTRK2 = 0 | NTRK3 = 0 | PAK4 = 0 | PBK 0 | PDGFRB 0 | PDK1 = 0 | PDPK1 = 0 | PIK4CA 0 | PIK4CB 0 | PLK1 = 0 | PRKAA1 = 0 | PRKCA 0 | PTK2 = 0 | PTK2B 0 | RAF1 = 0 | [1] 0

Nc1nc(OCC2CCCCC2)c2[nH]cnc2n1 (10 µM)
inactive: MAPK1 = 0 | MAPK4 = 0 | MAPKAPK2 = 0 | MKNK1 = 0 | NTRK2 = 0 | NTRK3 = 0 | PAK4 = 0 | PBK 0 | PDGFRB 0 | PDK1 = 0 | PDPK1 = 0 | PIK4CA 0 | PIK4CB 0 | PLK1 = 0 | PRKAA1 = 0 | PRKCA 0 | PTK2 = 0 | PTK2B 0 | RAF1 = 0 | [1] 0

CC(C)(C#N)c1ccc(N2C(=O)OCc3cnc4ccc(-c5cnc6ccccc6c5)cc4c32)cc1 (2.5 µM)
inactive: MAPK1 = 0 | MAPK4 = 0 | MAPKAPK2 = 0 | MKNK1 = 0 | NTRK2 = 0 | NTRK3 = 0 | PAK4 = 0 | PBK 0 | PDGFRB 0 | PDK1 = 0 | PDPK1 = 0 | PIK4CA 0 | PIK4CB 0 | PLK1 = 0 | PRKAA1 = 0 | PRKCA 0 | PTK2 = 0 | PTK2B 0 | RAF1 = 0 | [1] 0

Cc1ncc(-c2ccnc(Nc3ccc(S(C)(=O)=O)cc3)n2)n1C(C)C (2.5 µM)
inactive: MAPK1 = 0 | MAPK4 = 0 | MAPKAPK2 = 0 | MKNK1 = 0 | NTRK2 = 0 | NTRK3 = 0 | PAK4 = 0 | PBK 0 | PDGFRB 0 | PDK1 = 0 | PDPK1 = 0 | PIK4CA 0 | PIK4CB 0 | PLK1 = 0 | PRKAA1 = 0 | PRKCA 0 | PTK2 = 0 | PTK2B 0 | RAF1 = 0 | [1] 0

CN1CCN(c2ccc(Nc3cc(-c4cccc(-n5ccc6cc(C7CC7)cc(F)c6c5=O)c4CO)cn(C)c3=O)nc2)CC1 (2.5 µM)
inactive: MAPK1 = 0 | MAPK4 = 0 | MAPKAPK2 = 0 | MKNK1 = 0 | NTRK2 = 0 | NTRK3 = 0 | PAK4 = 0 | PBK 0 | PDGFRB 0 | PDK1 = 0 | PDPK1 = 0 | PIK4CA 0 | PIK4CB 0 | PLK1 = 0 | PRKAA1 = 0 | PRKCA 0 | PTK2 = 0 | PTK2B 0 | RAF1 = 0 | [1] 0

N#CC(=Cc1ccc(O)c(O)c1)C(=O)NCc1ccccc1 (mixture of isomers) (10 µM)
inactive: MAPK1 = 0 | MAPK4 = 0 | MAPKAPK2 = 0 | MKNK1 = 0 | NTRK2 = 0 | NTRK3 = 0 | PAK4 = 0 | PBK 0 | PDGFRB 0 | PDK1 = 0 | PDPK1 = 0 | PIK4CA 0 | PIK4CB 0 | PLK1 = 0 | PRKAA1 = 0 | PRKCA 0 | PTK2 = 0 | PTK2B 0 | RAF1 = 0 | [1] 0

N#C/C(=C\c1ccc(O)c(O)c1)C(=O)NCc1ccccc1 (10 µM)
inactive: MAPK1 = 0 | MAPK4 = 0 | MAPKAPK2 = 0 | MKNK1 = 0 | NTRK2 = 0 | NTRK3 = 0 | PAK4 = 0 | PBK 0 | PDGFRB 0 | PDK1 = 0 | PDPK1 = 0 | PIK4CA 0 | PIK4CB 0 | PLK1 = 0 | PRKAA1 = 0 | PRKCA 0 | PTK2 = 0 | PTK2B 0 | RAF1 = 0 | [1] 0

O=C(Nc1cc(C(F)(F)F)ccc1N1CCN(Cc2ccccn2)CC1)c1ccc(-c2ccncc2)o1 (10 µM)
inactive: MAPK1 = 0 | MAPK4 = 0 | MAPKAPK2 = 0 | MKNK1 = 0 | NTRK2 = 0 | NTRK3 = 0 | PAK4 = 0 | PBK 0 | PDGFRB 0 | PDK1 = 0 | PDPK1 = 0 | PIK4CA 0 | PIK4CB 0 | PLK1 = 0 | PRKAA1 = 0 | PRKCA 0 | PTK2 = 0 | PTK2B 0 | RAF1 = 0 | [1] 0

COc1cc(N2CCC(N)CC2)ccc1Nc1ncc(Cl)c(-c2c[nH]c3ccccc23)n1 (2.5 µM)
inactive: MAPK1 = 0 | MAPK4 = 0 | MAPKAPK2 = 0 | MKNK1 = 0 | NTRK2 = 0 | NTRK3 = 0 | PAK4 = 0 | PBK 0 | PDGFRB 0 | PDK1 = 0 | PDPK1 = 0 | PIK4CA 0 | PIK4CB 0 | PLK1 = 0 | PRKAA1 = 0 | PRKCA 0 | PTK2 = 0 | PTK2B 0 | RAF1 = 0 | [1] 0

Oc1ccc(-c2nc(-c3ccc(F)cc3)c(-c3ccncc3)[nH]2)cc1 (2.5 µM)
inactive: MAPK1 = 0 | MAPK4 = 0 | MAPKAPK2 = 0 | MKNK1 = 0 | NTRK2 = 0 | NTRK3 = 0 | PAK4 = 0 | PBK 0 | PDGFRB 0 | PDK1 = 0 | PDPK1 = 0 | PIK4CA 0 | PIK4CB 0 | PLK1 = 0 | PRKAA1 = 0 | PRKCA 0 | PTK2 = 0 | PTK2B 0 | RAF1 = 0 | [1] 0

O=C(c1ccc(-c2ccc(Cl)cc2)o1)N(Cc1ccccn1)c1ccc(N2CCNCC2)cc1 [MK2-IN-1 (hydrochloride)] (10 µM)
inactive: MAPK1 = 0 | MAPK4 = 0 | MAPKAPK2 = 0 | MKNK1 = 0 | NTRK2 = 0 | NTRK3 = 0 | PAK4 = 0 | PBK 0 | PDGFRB 0 | PDK1 = 0 | PDPK1 = 0 | PIK4CA 0 | PIK4CB 0 | PLK1 = 0 | PRKAA1 = 0 | PRKCA 0 | PTK2 = 0 | PTK2B 0 | RAF1 = 0 | [1] 0

Cc1c[nH]c2ccccc12 [Skatole] (10 µM)
inactive: MAPK1 = 0 | MAPK4 = 0 | MAPKAPK2 = 0 | MKNK1 = 0 | NTRK2 = 0 | NTRK3 = 0 | PAK4 = 0 | PBK 0 | PDGFRB 0 | PDK1 = 0 | PDPK1 = 0 | PIK4CA 0 | PIK4CB 0 | PLK1 = 0 | PRKAA1 = 0 | PRKCA 0 | PTK2 = 0 | PTK2B 0 | RAF1 = 0 | [1] 0

O=c1cc(N2CCOCC2)oc2c(-c3ccccc3)cccc12 (10 µM)
inactive: MAPK1 = 0 | MAPK4 = 0 | MAPKAPK2 = 0 | MKNK1 = 0 | NTRK2 = 0 | NTRK3 = 0 | PAK4 = 0 | PBK 0 | PDGFRB 0 | PDK1 = 0 | PDPK1 = 0 | PIK4CA 0 | PIK4CB 0 | PLK1 = 0 | PRKAA1 = 0 | PRKCA 0 | PTK2 = 0 | PTK2B 0 | RAF1 = 0 | [1] 0

C=CC(=O)Nc1ccc2ncnc(Nc3cccc(Br)c3)c2c1 (10 µM)
inactive: MAPK1 = 0 | MAPK4 = 0 | MAPKAPK2 = 0 | MKNK1 = 0 | NTRK2 = 0 | NTRK3 = 0 | PAK4 = 0 | PBK 0 | PDGFRB 0 | PDK1 = 0 | PDPK1 = 0 | PIK4CA 0 | PIK4CB 0 | PLK1 = 0 | PRKAA1 = 0 | PRKCA 0 | PTK2 = 0 | PTK2B 0 | RAF1 = 0 | [1] 0

CCOc1cc2ncc(-c3cc(N)nc(F)c3)n2cc1S(=O)(=O)C(C)(C)C (10 µM)
inactive: MAPK1 = 0 | MAPK4 = 0 | MAPKAPK2 = 0 | MKNK1 = 0 | NTRK2 = 0 | NTRK3 = 0 | PAK4 = 0 | PBK 0 | PDGFRB 0 | PDK1 = 0 | PDPK1 = 0 | PIK4CA 0 | PIK4CB 0 | PLK1 = 0 | PRKAA1 = 0 | PRKCA 0 | PTK2 = 0 | PTK2B 0 | RAF1 = 0 | [1] 0

C=CC(=O)N1CCC[C@@H](n2nc(-c3ccc(Oc4ccccc4)cc3)c(C(N)=O)c2N)C1 [Btk inhibitor 2] (10 µM)
inactive: MAPK1 = 0 | MAPK4 = 0 | MAPKAPK2 = 0 | MKNK1 = 0 | NTRK2 = 0 | NTRK3 = 0 | PAK4 = 0 | PBK 0 | PDGFRB 0 | PDK1 = 0 | PDPK1 = 0 | PIK4CA 0 | PIK4CB 0 | PLK1 = 0 | PRKAA1 = 0 | PRKCA 0 | PTK2 = 0 | PTK2B 0 | RAF1 = 0 | [1] 0

Ordered by number of heavy atoms (smallest number first): some entries from above
Nc1nc(OCC2CCCCC2)c2[nH]cnc2n1 (10 µM)
inactive: MAPK1 = 0 | MAPK4 = 0 | MAPKAPK2 = 0 | MKNK1 = 0 | NTRK2 = 0 | NTRK3 = 0 | PAK4 = 0 | PBK 0 | PDGFRB 0 | PDK1 = 0 | PDPK1 = 0 | PIK4CA 0 | PIK4CB 0 | PLK1 = 0 | PRKAA1 = 0 | PRKCA 0 | PTK2 = 0 | PTK2B 0 | RAF1 = 0 | [1] 0

N#C/C(=C\c1ccc(O)c(O)c1)C(=O)NCc1ccccc1 (10 µM)
inactive: MAPK1 = 0 | MAPK4 = 0 | MAPKAPK2 = 0 | MKNK1 = 0 | NTRK2 = 0 | NTRK3 = 0 | PAK4 = 0 | PBK 0 | PDGFRB 0 | PDK1 = 0 | PDPK1 = 0 | PIK4CA 0 | PIK4CB 0 | PLK1 = 0 | PRKAA1 = 0 | PRKCA 0 | PTK2 = 0 | PTK2B 0 | RAF1 = 0 | [1] 0

Cc1ncc(-c2ccnc(Nc3ccc(S(C)(=O)=O)cc3)n2)n1C(C)C (2.5 µM)
inactive: MAPK1 = 0 | MAPK4 = 0 | MAPKAPK2 = 0 | MKNK1 = 0 | NTRK2 = 0 | NTRK3 = 0 | PAK4 = 0 | PBK 0 | PDGFRB 0 | PDK1 = 0 | PDPK1 = 0 | PIK4CA 0 | PIK4CB 0 | PLK1 = 0 | PRKAA1 = 0 | PRKCA 0 | PTK2 = 0 | PTK2B 0 | RAF1 = 0 | [1] 0

(cont.)

O=c1cc(-c2ccccc2)oc2c(O)c(O)ccc12 [7,8-Dihydroxyflavone] (10 µM)
inactive: MAPK1 = 0 | MAPK4 = 0 | MAPKAPK2 = 0 | MKNK1 = 0 | NTRK2 = 0 | NTRK3 = 0 | PAK4 = 0 | PBK 0 | PDGFRB 0 | PDK1 = 0 | PDPK1 = 0 | PIK4CA 0 | PIK4CB 0 | PLK1 = 0 | PRKAA1 = 0 | PRKCA 0 | PTK2 = 0 | PTK2B 0 | RAF1 = 0 | [1] 0

NS(=O)(=O)c1ccc(Nc2nc(OCC3CCCCC3)c3[nH]cnc3n2)cc1 (10 µM)
inactive: MAPK1 = 0 | MAPK4 = 0 | MAPKAPK2 = 0 | MKNK1 = 0 | NTRK2 = 0 | NTRK3 = 0 | PAK4 = 0 | PBK 0 | PDGFRB 0 | PDK1 = 0 | PDPK1 = 0 | PIK4CA 0 | PIK4CB 0 | PLK1 = 0 | PRKAA1 = 0 | PRKCA 0 | PTK2 = 0 | PTK2B 0 | RAF1 = 0 | [1] 0

Source: the supplement of paper PMC12823440, “Inhibitors supercharge kinase turnover through native proteolytic circuits” (Nature, 2025)
